We go through two molecules from doi:10.1101/2021.06.01.446532.

Chains of the proteins cited; added tags and fusions are not shown.
UniProt Q8CEE6: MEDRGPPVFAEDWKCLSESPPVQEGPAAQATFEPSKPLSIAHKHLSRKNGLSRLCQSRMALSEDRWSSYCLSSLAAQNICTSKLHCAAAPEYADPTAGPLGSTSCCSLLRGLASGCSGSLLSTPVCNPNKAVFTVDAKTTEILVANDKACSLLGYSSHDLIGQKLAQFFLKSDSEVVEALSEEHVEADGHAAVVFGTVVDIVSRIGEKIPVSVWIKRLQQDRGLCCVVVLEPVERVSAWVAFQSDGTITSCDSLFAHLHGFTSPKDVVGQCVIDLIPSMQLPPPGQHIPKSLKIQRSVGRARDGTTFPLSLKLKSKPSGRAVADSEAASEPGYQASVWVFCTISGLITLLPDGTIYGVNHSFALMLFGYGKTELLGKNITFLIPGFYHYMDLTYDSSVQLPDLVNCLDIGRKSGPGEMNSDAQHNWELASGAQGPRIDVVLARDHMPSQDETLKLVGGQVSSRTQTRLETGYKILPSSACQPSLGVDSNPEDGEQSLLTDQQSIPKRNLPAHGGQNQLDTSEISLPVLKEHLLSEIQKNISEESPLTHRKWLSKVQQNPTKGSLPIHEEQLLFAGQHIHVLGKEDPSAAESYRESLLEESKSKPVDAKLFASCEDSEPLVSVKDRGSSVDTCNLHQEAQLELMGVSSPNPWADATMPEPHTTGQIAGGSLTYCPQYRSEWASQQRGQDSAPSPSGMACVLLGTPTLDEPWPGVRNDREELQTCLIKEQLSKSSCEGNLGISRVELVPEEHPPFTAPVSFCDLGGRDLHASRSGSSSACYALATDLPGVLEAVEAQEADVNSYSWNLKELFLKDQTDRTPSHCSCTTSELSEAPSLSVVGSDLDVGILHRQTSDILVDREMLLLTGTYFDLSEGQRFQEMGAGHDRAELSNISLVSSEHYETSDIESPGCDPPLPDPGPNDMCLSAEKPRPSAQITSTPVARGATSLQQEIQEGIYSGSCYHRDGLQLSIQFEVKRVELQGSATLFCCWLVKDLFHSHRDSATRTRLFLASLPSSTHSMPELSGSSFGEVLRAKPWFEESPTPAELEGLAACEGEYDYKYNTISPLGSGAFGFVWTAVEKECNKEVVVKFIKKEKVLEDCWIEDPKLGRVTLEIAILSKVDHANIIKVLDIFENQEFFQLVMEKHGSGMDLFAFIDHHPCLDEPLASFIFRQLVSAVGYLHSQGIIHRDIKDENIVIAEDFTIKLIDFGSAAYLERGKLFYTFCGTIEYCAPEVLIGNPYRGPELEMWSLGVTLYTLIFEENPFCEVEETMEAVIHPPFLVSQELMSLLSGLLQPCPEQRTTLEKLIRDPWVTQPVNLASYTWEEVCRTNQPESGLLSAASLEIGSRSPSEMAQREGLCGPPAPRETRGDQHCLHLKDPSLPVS

Results are given in words; binding and its absence hold for the method and conditions named. In cells and extracts the contact can be indirect. Some entries that bind do so weakly or less than the wild type. For some assays here: Sequences can lack the tags named with a protein.

The target in one assay is T1, LRRC23-FLAG (UniProt O35125).
T1 sequence: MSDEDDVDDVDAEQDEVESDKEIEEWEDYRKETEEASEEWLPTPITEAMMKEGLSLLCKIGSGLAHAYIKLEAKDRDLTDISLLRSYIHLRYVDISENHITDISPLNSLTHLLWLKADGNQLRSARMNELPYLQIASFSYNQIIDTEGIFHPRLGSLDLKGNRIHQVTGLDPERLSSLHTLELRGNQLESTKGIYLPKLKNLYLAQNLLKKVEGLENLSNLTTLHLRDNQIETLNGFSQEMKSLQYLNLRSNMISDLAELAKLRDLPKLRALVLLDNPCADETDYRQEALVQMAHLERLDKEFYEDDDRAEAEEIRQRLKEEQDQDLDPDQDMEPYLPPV
The assay is described as follows: co-IP.

In assay [1] the target is T2, LRRC23 (mouse (endogenous in testis)) (UniProt O35125).
T2 sequence: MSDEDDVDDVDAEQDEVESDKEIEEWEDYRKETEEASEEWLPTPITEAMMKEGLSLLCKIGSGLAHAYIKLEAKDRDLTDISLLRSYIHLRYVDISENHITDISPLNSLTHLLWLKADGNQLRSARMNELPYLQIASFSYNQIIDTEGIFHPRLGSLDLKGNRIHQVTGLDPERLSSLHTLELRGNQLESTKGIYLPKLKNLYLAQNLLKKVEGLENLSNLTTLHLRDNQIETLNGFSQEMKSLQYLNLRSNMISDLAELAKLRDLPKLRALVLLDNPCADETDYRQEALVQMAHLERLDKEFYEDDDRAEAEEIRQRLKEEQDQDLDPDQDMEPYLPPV
The assay is described as follows: co-IP.

On to PASK-HA (from UniProt Q8CEE6 1-1383), for which the binding entry in the assay with LRRC23-FLAG is “binds”.

B1: RSPH9 (protein, UniProt Q9D9V4 1-276)
chain: MDADSLLLSLELASGSGQGLSPDRRASLLTSLMLVKRDYRFARVLFWGRILGLVADYYIAQGLSEDQLAPRKTLYSLNCTEWSLLPPATEEMAMQISVVSGRFMGDPSHEYEHTELQKVNEGEKVFDEEVVVQIKEETRLVSIIDQIDKAVAIIPRGALFKTPFGVTHVNRTFEGLPLSEVRKLSSYFHFREAIDLKNKTLLEKSDLEPSLDFLDSLEYDIPRGSWSIQMERGNALVVLRSLLWPGLTFYHAPRTKNYGYIYVGTGEKNMDLPFML
B1: the binding entry in assay [1] was “binds”.
